Data source: PubChem BioAssay AID720505 (Drosophila RNAi Screening Center, 2013)
Purpose: 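Genes needed for store-operated calcium entry in fly cells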 (primary screen). System: Drosophila S2R+ cells. Reagents: long dsRNA against Drosophila genes. Challenge: thapsigargin (2 µM) in calcium-free buffer to empty internal stores, then 2 mM calcium added back. Read-out: 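Stores emptied by 2 µM thapsigargin without calcium, then 2 mM calcium re-added; fluo-4 fluorescence followed by FLIPR in 384-well plates, per-well averaged endpoint, raw; two screen passes, some wells retested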. Reading the numbers: calcium signal and retest calcium signal: higher = more calcium entry after store depletion. Call rule: 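Knock-downs counted as hits when calcium entry dropped relative to STIM1 positive and Rho1 negative controls present on each plate; roughly 1500 genes called, with reductions of differing size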. Calls: active = called as lowering calcium entry; inactive = not called.
The deposit covers about 20,000 reagents; shown is an unselected part of those with a known target gene and a result. In the full data, about 2,100 (10%) are marked active. 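Raw plate signals without normalisation; calls rest on control-based scores that were not deposited; replicate 2 separates called from uncalled poorly.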 The numbers tell different reagents against one gene apart. A plus sign joins genes that one reagent is predicted to hit. The record does not give: the amount of reagent, the time to read-out.

no.	gene	dsRNA no.	calcium signal, replicate 1	calcium signal, replicate 2	retest calcium signal, replicate 1	retest calcium signal, replicate 2	activity call
1	CG30325	1	87	86.7			active
2	CG7131	1	225	280			inactive
3	mirr	1	83.3	81.3			inactive
4	Nup93-2	1	144	98.5			inactive
5	CG3339	1	162	107			inactive
6	Art8	1	124	144			inactive
7	CG32833	1	161	94.9			inactive
8	CG2747	1	90	181			inactive
9	CG13028	1	88.2	202			inactive
10	CG15005	1	102	112			inactive
11	CG10931	1	178	172			inactive
12	HisCl1	1	118	131			inactive
13	Cmtr1	1	109	117			inactive
14	CG1941	1	107	188			inactive
15	Cpr78E	1	117	155			inactive
16	CG13720	1	60.5	69.6			inactive
17	CG3719	1	139	134			inactive
18	Takl2	1	148	89.9			inactive
19	ScsbetaA	1	96.5	135			inactive
20	CG13465	1	76.5	184			active
21	Mdh1	1	164	167			inactive
22	Rpt3R	1	132	94.6			inactive
23	CG8292	1	169	157			inactive
24	Irk1	1	255	131			inactive
25	Irk1	2	311	205			inactive
26	CG18748	1	151	124			inactive
27	Tsp42Ei	1	101	140			inactive
28	CG18557	1	218	107			inactive
29	CG14570	1	91.1	157			inactive
30	elfless	1	92.9	111			inactive
31	cry	1	181	129			inactive
32	Irbp18	1	87.9	151			inactive
33	C15	1	185	91.3			inactive
34	CG3640	1	154	202			inactive
35	CG7544	1	78.7	141			inactive
36	CG30427	1	71.4	86.8			inactive
37	CG30427	2	73.6	84.1			inactive
38	CG30427	3	147	198			inactive
39	Gem3	1	89.4	114			inactive
40	CG6793	1	89.7	88.3			inactive
41	Reg-2	1	61	121			active
42	Axud1	1	164	169			inactive
43	CR13656	1	198	174			inactive

Ordered by “calcium signal, replicate 2” (ascending): some entries from above
gene	dsRNA no.	calcium signal, replicate 1	calcium signal, replicate 2	retest calcium signal, replicate 1	retest calcium signal, replicate 2	activity call
CG18557	1	218	107			inactive
elfless	1	92.9	111			inactive
CG18748	1	151	124			inactive
cry	1	181	129			inactive
Tsp42Ei	1	101	140			inactive
CG14570	1	91.1	157			inactive
Irk1	2	311	205			inactive

More records:
no.	gene	dsRNA no.	calcium signal, replicate 1	calcium signal, replicate 2	retest calcium signal, replicate 1	retest calcium signal, replicate 2	activity call
44	Ir31a	1	85.5	238			inactive
45	qsm	1	127	99.7			inactive
46	qsm	2	86.4	87.8			inactive
47	RagA-B	1	95.6	134			inactive
48	MFS1	1	144	184			inactive
49	HLH3B	1	91.5	127			inactive
50	CG6420	1	98.3	158			inactive
51	Ppt1	1	281	103			inactive
52	Cht2	1	181	97			inactive
53	CG9550	1	86.2	118			inactive
54	CG33217	1	118	147			inactive
55	Aplip1	1	63.9	97.2			inactive
56	Aplip1	2	139	95.8			inactive
57	icln	1	144	160			inactive
58	Madm	1	83.4	160			active
59	CG1523	1	131	178			inactive
60	GstE4	1	129	105			inactive
61	Mdr49	1	97.9	165			inactive
62	Sh	1	63.8	52.1			active
63	Sh	2	89.3	118	81.9	105	inactive
64	Sh	3	95.1	113			inactive
65	Sh	4	97.6	161			inactive
66	Sh	5	80.8	137			inactive
67	CG11257	1	160	142			inactive
68	Fic	1	200	198			inactive
69	Reck	1	129	80.6			inactive
70	Reck	2	92.1	144			inactive
71	CG14566	1	127	183			inactive
72	SNF4Agamma	1	76.9	102			inactive
73	SNF4Agamma	2	138	148			inactive
74	SNF4Agamma	3	189	379			inactive
75	Tmtc2	1	149	233			inactive
76	betaNACtes4	1	105	107			inactive
77	TBC1D16	1	192	153			inactive
78	Nup214	1	165	100			inactive
79	tef	1	122	78.3			inactive
80	tef	2	93.2	221			inactive
81	Tg	1	123	111			inactive
82	mRpS14	1	69.8	177			active
83	Trpml + CG42638	1	76.7	84.1			inactive
